Results are given in words; binding and its absence hold for the method and conditions named.
Target: (EL)3
Assay: time-resolved Thioflavin T fluorescence; salmon testes DNA injected into peptide; 150 mM NaCl, 10 mM MES pH 6.5, 50 uM Thioflavin T; 500 uM (HL)3 + 500 uM DNA final; 27 to 30 C; 270 s; both purified

B1: (EL)3 (peptide)
peptide: ELELEL
  binding: no binding

From article PMC3098241, “Amyloid-Associated Nucleic Acid Hybridisation” (PLoS ONE, 2011)
